Data from BindingDB's records for doi:10.1021/jm049227l (Molecular Discovery, 2005).

Chains of the proteins cited; added tags and fusions are not shown.
UniProt P02768, whole entry: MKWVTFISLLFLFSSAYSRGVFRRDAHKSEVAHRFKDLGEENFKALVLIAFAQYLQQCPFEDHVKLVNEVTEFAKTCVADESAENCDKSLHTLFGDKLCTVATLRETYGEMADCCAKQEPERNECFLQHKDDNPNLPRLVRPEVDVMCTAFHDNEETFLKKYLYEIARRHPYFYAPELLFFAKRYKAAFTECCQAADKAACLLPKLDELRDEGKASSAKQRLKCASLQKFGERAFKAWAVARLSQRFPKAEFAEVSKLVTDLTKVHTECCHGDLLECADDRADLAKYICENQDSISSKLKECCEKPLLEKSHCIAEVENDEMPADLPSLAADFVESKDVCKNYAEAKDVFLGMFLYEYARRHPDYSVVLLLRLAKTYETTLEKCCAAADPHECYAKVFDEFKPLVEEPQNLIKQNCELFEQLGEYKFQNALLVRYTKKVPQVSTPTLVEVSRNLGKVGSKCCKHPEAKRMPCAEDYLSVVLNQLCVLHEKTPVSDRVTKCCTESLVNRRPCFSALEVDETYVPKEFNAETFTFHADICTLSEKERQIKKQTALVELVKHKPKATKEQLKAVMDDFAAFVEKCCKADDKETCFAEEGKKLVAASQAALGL

Target: Albumin (Homo sapiens, UniProt P02768)
Assay: Binding affinity towards human serum albumin

## NS(=O)(=O)c1cc(C(=O)O)c(NCc2ccco2)cc1Cl [4-chloro-2-[(furan-2-ylmethyl)amino]-5-sulfamoylbenzoic acid]
  Association constant (Ka): 138000 M⁻¹
